Experimental data reported in publication PMC9952942.
These are yes or no findings as the source states them, for the method shown. Binding seen in cells or lysates may run through a third protein. Some binding calls cover weakened binding; strength is not graded here.

Protein sequences, listed by entry. Tags and fused reporters are not part of them.
UniProt Q9UM11: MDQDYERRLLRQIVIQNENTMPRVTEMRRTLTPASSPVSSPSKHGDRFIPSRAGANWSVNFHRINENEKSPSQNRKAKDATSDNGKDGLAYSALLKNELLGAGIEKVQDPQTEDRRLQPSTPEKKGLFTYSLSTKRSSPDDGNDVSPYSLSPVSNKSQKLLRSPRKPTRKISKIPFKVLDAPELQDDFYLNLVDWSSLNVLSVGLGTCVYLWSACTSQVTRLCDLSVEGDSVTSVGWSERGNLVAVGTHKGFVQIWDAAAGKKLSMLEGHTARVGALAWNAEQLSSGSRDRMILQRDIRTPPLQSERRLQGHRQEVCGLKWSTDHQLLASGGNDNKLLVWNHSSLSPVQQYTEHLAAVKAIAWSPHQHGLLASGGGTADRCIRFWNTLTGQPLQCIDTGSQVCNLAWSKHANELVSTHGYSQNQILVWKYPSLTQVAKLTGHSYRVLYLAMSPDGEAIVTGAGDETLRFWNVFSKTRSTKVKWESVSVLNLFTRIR

Biological target: T1, HM-HN1 (pCW57-HM-HN1), Doxycycline-induced in stable DU-145 cells (human) (UniProt Q9UK76)
T1 sequence: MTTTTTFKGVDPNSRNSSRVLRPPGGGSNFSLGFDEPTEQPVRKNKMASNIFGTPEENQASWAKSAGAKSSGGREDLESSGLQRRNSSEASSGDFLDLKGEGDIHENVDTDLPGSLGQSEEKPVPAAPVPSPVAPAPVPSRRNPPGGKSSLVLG
Assay: co-IP; anti-HN1 antibody crosslinked to Dynabeads G; lysate of DU-145 pCW57-HM-HN1 cells induced with Doxycycline and transfected with Cdh1-HA; immunoblot with anti-Cdh1

Cdh1-HA (Addgene No. 11596), expressed in DU-145 cells (from UniProt Q9UM11 1-496)
binding: binds
